# Data reported in the supplement of paper PMC8728848.
# The other results are listed elsewhere or left out.
# B1: Blon2355mut (Bifidobacterium longum) (protein)
# chain: MVQEPTLEWHVIPEPTNVEPLVGTCSLPLSGTVVEQRGADDAEAVFARQLVDDIKRVCGGRWQVASGEVQREVTLRTSPSLDDWSYVLEVSPDGVVITGSGFEGVRDGVQTLRQIIRQIGLTIPCMVIRDRPAFSTRGYYLDVTRGRVPSMAWLKSWVDRLCFYKYNQFQLYIEHTFQFNGLSEVWRGADPLTSSDILELDSYCAARGIELVPSVSTFGHHYTALRTRQLRDLGEFPEDADRPFSLIERMTHHTLNITDERSYEFSTSLIDELMPLFRSRKFNICANETFDLGKGRSKQESAKRGVGAMYADFVERLCRHVDDRGHDVMVWADVALEHPEIIDTLPKNITWLNWQYEPNVDDGTTAALADAGATQMVCPAVWCWNALIPRIDDAWNNITRMARHGRAHDVSGMLVTDWGDFGHVNDPRMSVPGMIFGAQQSWNPDAELSEVDMLSRISTIEYGDHTGSVVGALRGASAKGGFSWSDLVTYLELDDGRGGCNTEIVRVMGCLEAYRNDLPQSGQARLADARVSMLRTLRDSILAGRELNGKLDDAAKDITQLLRVAGDPSSAAVWSLAIDGQRLLNRVGLALLAAHGVVRQDEAGIDAAKLADELECWTEQYSRLWHEVSRQSELARIQHVVWRAADVLRSI
# Assays:
# Assay in all cases: glycan array binding signal (z-score within array); higher = stronger binding
# Settings in all cases: glycan notation: IUPAC condensed, linker removed
# [1] = biological target: GalNAc(b1-4)GlcNAc(b1-2)Man(a1-3)[GalNAc(b1-4)GlcNAc(b1-2)Man(a1-6)]Man(b1-4)GlcNAc(b1-4)GlcNAc
# Summary of the method: (§1)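 Columns mapping to the same glycan were averaged after glycan names were converted to IUPAC-condensed notation. The data come from 3228 arrays in the Consortium for Functional Glycomics database, limited to those with an available protein sequence. Binding is reported as a within-array Z-score averaged across arrays of one protein sequence and across linkers.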
# [2] = biological target: GalNAc(b1-4)GlcNAc(b1-3)GalNAc(b1-4)GlcNAc
# Summary of the method: as §1
# GalNAc(b1-4)GlcNAc6S = biological target: GalNAc(b1-4)GlcNAc6S
# Summary of the method: as §1
# GalNAc(b1-6)GalNAc = biological target: GalNAc(b1-6)GalNAc
# Summary of the method: as §1
# GalNAc3S(b1-4)GlcNAc = biological target: GalNAc3S(b1-4)GlcNAc
# Summary of the method: as §1
# GalNAc3S(b1-4)GlcNAc3S = biological target: GalNAc3S(b1-4)GlcNAc3S
# Summary of the method: as §1
# [3] = biological target: GalNAc3S(b1-4)[Fuc(a1-3)]GlcNAc
# Summary of the method: as §1
# GalNAc4S6S(b1-4)GlcNAc = biological target: GalNAc4S6S(b1-4)GlcNAc
# Summary of the method: as §1
# GalNAc6S(b1-4)GlcNAc = biological target: GalNAc6S(b1-4)GlcNAc
# Summary of the method: as §1
# Glc(a1-4)Glc = biological target: Glc(a1-4)Glc
# Summary of the method: as §1
# [4] = biological target: Glc(a1-4)Glc(a1-4)Glc(a1-4)Glc
# Summary of the method: as §1
# Glc(a1-6)Glc(a1-6)Glc = biological target: Glc(a1-6)Glc(a1-6)Glc
# Summary of the method: as §1
# [5] = biological target: Glc(a1-6)Glc(a1-6)Glc(a1-6)Glc
# Summary of the method: as §1
# Glc(b1-4)Glc = biological target: Glc(b1-4)Glc
# Summary of the method: as §1
# Glc(b1-6)Glc = biological target: Glc(b1-6)Glc
# Summary of the method: as §1
# GlcA(b1-3)Gal = biological target: GlcA(b1-3)Gal
# Summary of the method: as §1
# GlcA(b1-3)GlcNAc = biological target: GlcA(b1-3)GlcNAc
# Summary of the method: as §1
# GlcA(b1-6)Gal = biological target: GlcA(b1-6)Gal
# Summary of the method: as §1
# [6] = biological target: GlcA3S(b1-3)Gal(b1-4)GlcNAc(b1-2)Man
# Summary of the method: as §1
# [7] = biological target: GlcA3S(b1-3)Gal(b1-4)GlcNAc(b1-3)Gal(b1-4)Glc
# Summary of the method: as §1
# [8] = biological target: GlcNAc(a1-3)Gal(b1-4)GlcNAc
# Summary of the method: as §1
# [9] = biological target: GlcNAc(a1-4)Gal(b1-3)GlcNAc
# Summary of the method: as §1
# [10] = biological target: GlcNAc(a1-4)Gal(b1-4)GalNAc
# Summary of the method: as §1
# [11] = biological target: GlcNAc(a1-4)Gal(b1-4)GlcNAc
# Summary of the method: as §1
# [12] = biological target: GlcNAc(a1-4)Gal(b1-4)GlcNAc(b1-3)Gal(b1-4)Glc
# Summary of the method: as §1
# [13] = biological target: GlcNAc(a1-4)Gal(b1-4)GlcNAc(b1-3)Gal(b1-4)GlcNAc
# Summary of the method: as §1
# [14] = biological target: GlcNAc(a1-4)Gal(b1-4)GlcNAc(b1-3)Gal(b1-4)GlcNAc(b1-3)Gal(b1-4)GlcNAc
# Summary of the method: as §1
# [15] = biological target: GlcNAc(a1-4)Gal(b1-4)GlcNAc(b1-3)Gal(b1-4)[Fuc(a1-3)]GlcNAc(b1-3)Gal(b1-4)[Fuc(a1-3)]GlcNAc
# Summary of the method: as §1
# [16] = biological target: GlcNAc(a1-6)Gal(b1-4)GlcNAc
# Summary of the method: as §1
# [17] = biological target: GlcNAc(b1-2)Gal(b1-3)GalNAc
# Summary of the method: as §1
binder,measurement,setting,value
B1,glycan array binding signal (z-score),[1],-0.57
same,glycan array binding signal (z-score),[2],0.796
same,glycan array binding signal (z-score),GalNAc(b1-4)GlcNAc6S,2.38
same,glycan array binding signal (z-score),GalNAc(b1-6)GalNAc,0.004
same,glycan array binding signal (z-score),GalNAc3S(b1-4)GlcNAc,-0.364
same,glycan array binding signal (z-score),GalNAc3S(b1-4)GlcNAc3S,-0.051
same,glycan array binding signal (z-score),[3],0.145
same,glycan array binding signal (z-score),GalNAc4S6S(b1-4)GlcNAc,-0.651
same,glycan array binding signal (z-score),GalNAc6S(b1-4)GlcNAc,-0.569
same,glycan array binding signal (z-score),Glc(a1-4)Glc,0.744
same,glycan array binding signal (z-score),[4],2.06
same,glycan array binding signal (z-score),Glc(a1-6)Glc(a1-6)Glc,0.116
same,glycan array binding signal (z-score),[5],-0.66
same,glycan array binding signal (z-score),Glc(b1-4)Glc,-0.133
same,glycan array binding signal (z-score),Glc(b1-6)Glc,-0.548
same,glycan array binding signal (z-score),GlcA(b1-3)Gal,-1.31
same,glycan array binding signal (z-score),GlcA(b1-3)GlcNAc,-0.541
same,glycan array binding signal (z-score),GlcA(b1-6)Gal,0.584
same,glycan array binding signal (z-score),[6],-0.982
same,glycan array binding signal (z-score),[7],0.426
same,glycan array binding signal (z-score),[8],0.14
same,glycan array binding signal (z-score),[9],0.623
same,glycan array binding signal (z-score),[10],-0.513
same,glycan array binding signal (z-score),[11],-0.637
same,glycan array binding signal (z-score),[12],-0.818
same,glycan array binding signal (z-score),[13],-0.378
same,glycan array binding signal (z-score),[14],-1.03
same,glycan array binding signal (z-score),[15],-0.864
same,glycan array binding signal (z-score),[16],-0.447
same,glycan array binding signal (z-score),[17],-0.826

# 2 entries from above in a different format.
binder | measurement | setting | value
B1 | glycan array binding signal (z-score) | [7] | 0.426
same | glycan array binding signal (z-score) | [8] | 0.14
